The values below come from PubChem BioAssay AID493014 (National Center for Advancing Translational Sciences (NCATS), 2011).

SMILES strings stand for the structures. The list shows a part of the results. These are further read-outs of the screen, such as a control signal, another cell line or another target. No call is given for them. The list favours compounds with an active or inconclusive main result. Words in brackets tell the shape of the fitted curve; partial curves, single points and poor fits give uncertain potencies.

A short description of this assay: qHTS Assay to Find Inhibitors of Chronic Active B-Cell Receptor Signaling. The conditions noted are these: ABC-DLBCL IkBa-CBG/CBR reporter, luminescence ratio (green luciferase fused to IkBa over red control in TMD8 lymphoma cells), 4 h. In a few lines: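 Cell line TMD8 (human ABC DLBCL), stably expressing tet-inducible CBG68-IkBa fusion and CBR; IMDM/0.5% FBS; cpd up to 46 uM; dox induction, 4 h, 37C/5% CO2; dual luminescence; green/red ratio; MG132 control.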
A general note: In qHTS, concentration-response curves come from the screen itself.

Setting [1] is: measured here: CBR red luminescence, cell number.
Setting [2] is: measured here: IkBa-CBG green luminescence.

A word on the AC50: it is the concentration at which the activity in the assay is half-maximal. On to `CCCOCc1ccc(O)c2ncccc12`, for which the half-maximal activity concentration (AC50) runs as follows: under setting [1], 0.282 µM [rising, full curve, poor fit]; under setting [2], 2.24 µM [falling, full curve, poor fit].

Consider `COc1ccc(NC(=S)N(Cc2cccnc2)Cc2ccco2)cc1`, for which the concentration at half-maximal activity (AC50) under setting [1] is 35.5 µM [rising, single point].

Turning to `CCCn1c(SCC(=O)c2ccc3c(c2)OCCO3)n[nH]c1=O`, under setting [1], the half-maximal activity concentration (AC50) is 10 µM [falling, partial curve, poor fit].

Regarding `CCN(CC)S(=O)(=O)c1cccc(C(=O)Nc2cccc(C)c2)c1`, the half-maximal activity concentration (AC50) under setting [1] is 20.6 µM [falling, single point].

With `CN1C(=O)CSc2ccc(NC(=O)NCCC3=CCCCC3)cc21`, under setting [1], the AC50 was 0.92 µM [rising, full curve, poor fit].

`COc1cc(CN2CCCCC2C(=O)Nc2ccc(Oc3ccccc3)nc2)ccc1O` (centres undefined): under setting [1], the concentration at half-maximal activity (AC50) is 6.31 µM [rising, full curve].

With `CNC(=O)CC1C(=O)N(C)C(=S)N1NC(=O)c1ccccc1` (centres undefined), under setting [1], the AC50 was 0.1 µM [falling, full curve, poor fit].

In the case of `CCCCc1ccc(Nc2ncccc2C#N)cc1`, the AC50 under setting [1] is 6.31 µM [rising, partial curve, poor fit].

`O=C(CSc1nc2ccccc2nc1N1CCCCC1)Nc1ccc(F)cc1`: the AC50 under setting [1] is 3.55 µM [falling, full curve].

In the case of `O=C(CSc1nc2nc3c(cc2c(=O)n1-c1ccccc1)CCCC3)Nc1ccccc1`, under setting [1], the half-maximal activity concentration (AC50) is 0.651 µM [rising, full curve].

On to `CCOC(=O)CSc1nc2ccccc2c(=O)n1NC(=O)c1ccccc1`, for which the AC50 under setting [1] was 10 µM [falling, partial curve, poor fit].

With `COc1ccc(NC(=O)C2CCCC2)cc1S(=O)(=O)N1CCOCC1`, the concentration at half-maximal activity (AC50) under setting [1] is 20.6 µM [rising, single point].

For `Cn1nccc1C(=O)OCC(=O)Nc1nc(-c2ccccc2)cs1`, under setting [1], the concentration at half-maximal activity (AC50) is 11.2 µM [falling, partial curve].

Regarding `COc1ccc([N+](=O)[O-])cc1N(CC(O)CN1C(=O)NC(C)(C)C1=O)S(=O)(=O)c1ccccc1` (centres undefined), under setting [1], the concentration at half-maximal activity (AC50) is 8.91 µM [falling, partial curve, poor fit].

As for `Cc1cc(C(F)(F)F)cc(NNC(=O)NC(=O)c2c(F)cccc2Cl)n1`, the AC50 under setting [1] is 3.16 µM [rising, single point].

For `Cc1cc(=O)[nH]c(N/N=C/c2c(C)nn(-c3ccccc3Cl)c2Cl)n1`, the AC50 under setting [1] is 11.2 µM [falling, partial curve, poor fit].

Consider `O=C(/C=C/c1ccco1)NC(=S)Nc1ccc(C(=O)O)cc1`, for which the half-maximal activity concentration (AC50) under setting [1] is 2.51 µM [falling, full curve].

As to `O=C(CCCC(=O)N(CC(=O)NC1CCCC1)Cc1ccccc1)Nc1ccccn1`, under setting [1], the AC50 is 14.1 µM [falling, single point].

On to `Cc1nccn1CCCNC(=O)c1nc(Cn2cc([N+](=O)[O-])cn2)no1`, for which, under setting [1], the concentration at half-maximal activity (AC50) is 1.41 µM [rising, full curve].

As for `O=C(Cn1nnc(-c2ccncc2)n1)N(C1CCCCC1)C1CCCCC1`, the AC50 under setting [1] is 20.6 µM [falling, partial curve, poor fit].

On to `CS(=O)(=O)N1CCC(C(=O)N2CCN(c3ccccc3F)CC2)CC1`, for which the concentration at half-maximal activity (AC50) under setting [1] is 7.08 µM [falling, single point].

As for `CCOC(=O)C1(CCc2ccccc2)CCN(C(=O)c2occc2C)CC1`, under setting [1], the AC50 is 22.4 µM [falling, partial curve, poor fit].

With `Brc1cnc2nc(SC/C=C/c3ccccc3)[nH]c2c1`, the concentration at half-maximal activity (AC50) under setting [1] was 1.58 µM [rising, partial curve].

As to `O=C(c1ccc(Cl)c(Cl)c1)N1CCN(Cc2ccc3c(c2)OCO3)CC1`, the concentration at half-maximal activity (AC50) under setting [1] was 25.1 µM [falling, single point].

As for `CCC(=O)Nc1ccc(S(=O)(=O)Nc2ccccn2)cc1`, the AC50 under setting [1] was 0.0891 µM [falling, full curve, poor fit].

As to `O=C(COC(=O)c1cccnc1Cl)Nc1nc(-c2ccccc2)cs1`, the concentration at half-maximal activity (AC50) under setting [1] is 0.259 µM [rising, full curve, poor fit].

`Nc1nc(OCC2CCCCC2)c2[nH]cnc2n1`: the half-maximal activity concentration (AC50) is 2.82 µM [rising, single point] under setting [1] and 12.6 µM [falling, single point] under setting [2].

For `COc1ccc(-c2c(C#N)c(SCC(=O)c3cc4ccccc4oc3=O)nc(C)c2C(=O)Nc2ccccc2)cc1`, the concentration at half-maximal activity (AC50) under setting [1] was 18.4 µM [falling, single point].

As for `Cc1ccc(CN(C(=O)c2ccc(Cl)c([N+](=O)[O-])c2)C2CCS(=O)(=O)C2)o1` (centres undefined), the AC50 under setting [1] was 1 µM [falling, full curve, poor fit].

Regarding `CNC(=O)CC1C(=O)N(c2ccc(Cl)cc2)C(=S)N1NC(=O)c1cccc(F)c1` (centres undefined), the half-maximal activity concentration (AC50) under setting [1] was 0.112 µM [rising, full curve, poor fit].

On to `COc1ccc(OC)c(-n2c(-c3cccc(S(=O)(=O)N(C)C)c3)n[nH]c2=S)c1`, for which the AC50 under setting [1] is 6.31 µM [rising, single point].

Consider `CC1=CC(C)(C)N(C(=O)CNC2CCCC2)c2cc(C)ccc21`, for which the AC50 under setting [1] was 35.5 µM [falling, single point].

As to `Cc1cccc(NC(=S)NC(=O)c2oc3ccccc3c2C)n1`, the half-maximal activity concentration (AC50) under setting [1] was 0.282 µM [rising, full curve, poor fit].

As to `CC[C@@]12C(=O)N(c3cccc(Br)c3)C(=O)N1[C@H](c1cccc(C)c1)[C@@H]1C(=O)N(Cc3ccccc3)C(=O)[C@@H]12`, under setting [1], the concentration at half-maximal activity (AC50) was 23.1 µM [falling, partial curve].

Regarding `Cc1ccc(-c2cc(C(=O)Nc3nccs3)c3ccccc3n2)c(C)c1`, the half-maximal activity concentration (AC50) under setting [1] is 7.31 µM [falling, partial curve].

With `CCN(C(=O)CSc1nc(C)nc2sc3c(c12)CCC3)C1CCS(=O)(=O)C1` (centres undefined), under setting [1], the AC50 is 5.8 µM [rising, partial curve, poor fit].

For the compound `NC(=O)CSc1ncnc2c1nnn2Cc1ccc(F)cc1`, the AC50 under setting [1] was 15.8 µM [falling, partial curve, poor fit].

Regarding `O=C(NC1CCCCC1)C(c1cccs1)N(C(=O)c1ccco1)c1ccc2c(c1)OCCO2` (centres undefined), the half-maximal activity concentration (AC50) under setting [1] was 29.1 µM [falling, single point].

For `Cc1occc1C(=O)O/N=C(\N)c1ccccc1`, under setting [1], the concentration at half-maximal activity (AC50) is 10 µM [falling, partial curve].

Consider `CN(CCOc1ccccc1)C(=O)C1CCC(=O)N(CCc2ccc(Cl)cc2)C1` (centres undefined), for which the half-maximal activity concentration (AC50) under setting [1] is 12.6 µM [falling, partial curve, poor fit].

In the case of `CCOc1cc(/C=N\Nc2nc(Nc3ccccc3)nc(N3CCOCC3)n2)ccc1OC(=O)c1ccco1`, the AC50 under setting [1] was 5.17 µM [falling, single point].

For the compound `O=c1cc(-c2ccco2)oc2c1ccc1ccccc12`, the AC50 under setting [1] was 0.731 µM [falling, full curve, poor fit].

With `COc1ccc(-c2noc(CSc3ccccc3)n2)cc1OC`, the AC50 under setting [1] was 0.794 µM [rising, partial curve, poor fit].

With `CCn1cc(C(=O)Nn2cnnc2)c(=O)c2ccc(C)nc21`, the half-maximal activity concentration (AC50) under setting [1] is 7.08 µM [rising, partial curve].

Consider `COc1ccc(/C=C2/SC(=O)NC2=O)cc1`, for which the concentration at half-maximal activity (AC50) under setting [1] is 35.5 µM [falling, single point].

As for `CC(NC(=O)COC(=O)c1ccc(N(C)C)cc1)c1ccccc1` (centres undefined), under setting [1], the AC50 is 35.5 µM [rising, single point].

For `COC1=CC(=O)c2ccccc2C1=O`, under setting [1], the AC50 was 18.4 µM [falling, single point].

Turning to `Cc1cccc(-c2nc(CC(=O)Nc3cccc(S(=O)(=O)NC4=NCCC4)c3)cs2)c1`, the AC50 under setting [1] was 0.092 µM [rising, full curve, poor fit].

Turning to `CCO[C@H]1OC(C(=O)N2CCOCC2)=C[C@@H](c2ccccc2)[C@@H]1CCCO`, under setting [1], the half-maximal activity concentration (AC50) was 0.112 µM [rising, full curve, poor fit].

Consider `O=C(COc1cccnc1[N+](=O)[O-])Nc1ccc2c(c1)OC(F)(F)O2`, for which the AC50 under setting [1] is 20.6 µM [rising, partial curve, poor fit].

Consider `COc1ccccc1NS(=O)(=O)c1ccc(C(=O)Nc2ncccc2O)cc1`, for which, under setting [1], the half-maximal activity concentration (AC50) was 6.51 µM [falling, partial curve, poor fit].

On to `COc1cccc(CNCCc2c[nH]c3ccccc23)c1OCc1ccc(F)cc1`, for which, under setting [1], the AC50 was 29.1 µM [falling, single point].

Take `Cc1nn(-c2ccccc2)c2[nH]c(=O)c(CNc3ccc(N4CCOCC4)cc3)cc12`: under setting [1], the AC50 was 2.82 µM [falling, partial curve, poor fit].

Consider `O=C(COC(=O)/C=C/C(=O)N1CCN(c2ccccc2)CC1)NC(c1ccccc1)c1ccccc1`, for which the AC50 under setting [1] is 0.0891 µM [falling, full curve, poor fit].

For the compound `Cc1ccc(S(=O)(=O)/N=c2\ccc(Cl)cn2C(F)F)cc1`, the concentration at half-maximal activity (AC50) under setting [1] is 2.82 µM [rising, partial curve, poor fit].

As to `CCc1ccc(-c2csc(NC(=O)COC(=O)CCc3nc4ccccc4s3)n2)cc1`, under setting [1], the half-maximal activity concentration (AC50) was 0.82 µM [rising, partial curve, poor fit].

With `COc1cccc(-n2c(CNc3ccc(F)cc3)nnc2SCC(N)=O)c1`, the half-maximal activity concentration (AC50) under setting [1] was 2.31 µM [falling, partial curve, poor fit].

Turning to `O=C(COC(=O)c1ccc(NS(=O)(=O)c2cccs2)cc1O)NC1CCCCC1`, under setting [1], the AC50 was 0.708 µM [falling, full curve].

Regarding `O=C(CSc1nnc(CCCN2C(=O)c3cccc4cccc(c34)C2=O)n1-c1ccccc1)NCCCN1CCOCC1`, under setting [1], the AC50 was 5.17 µM [rising, partial curve, poor fit].

As for `CC(/C=C\C=C\c1ccccc1)=N\NC(=O)c1cncc(Br)c1`, the concentration at half-maximal activity (AC50) under setting [1] is 12.6 µM [falling, partial curve].

For the compound `O=C(Nc1nnc(-c2ccccc2Cl)o1)c1ccc(S(=O)(=O)N2CCCCCC2)cc1`, the half-maximal activity concentration (AC50) under setting [1] is 1.12 µM [falling, full curve, poor fit].

On to `O=C(Nc1nc2c(s1)CCCC2)c1cc2n(n1)C(C(F)(F)F)CC(C1CC1)N2` (centres undefined), for which, under setting [1], the AC50 was 7.94 µM [rising, partial curve, poor fit].
